Results as given in publication PMC6271632, “Tryptophan as a Probe to Study the Anticancer Mechanism of Action and Specificity of α-Helical Anticancer Peptides” (Molecules, 2014).

Experiments:
[1] = Isothermal titration calorimetry with DMPC LUVs; type: binding; details: ITC
Method: The interaction of the peptides PNW and PCW with phospholipids was investigated using ITC at 25 °C, in which DMPC or DMPS LUVs were injected into an ITC cell containing peptide solutions of PNW or PCW. Based on the tryptophan fluorescence and quenching experiments, PNW and PCW could cover the trend of peptide-membrane interaction, thus, PMW was not included in the liposome experiments. The interaction of peptides with phospholipid bilayer membrane is entropy-driven. […] It is clear to see that the endothermic heat flow decreased with the increase of the number of injections and the free peptide concentration in the cell decreased simultaneously. The endothermic binding reaction of peptide PNW ceased after 20 injections, when all of peptide in bulk bound to DMPC LUVs (Figure 4A) and the further addition of DMPC LUVs caused dilution heat. However, the endothermic binding reaction of PCW ceased after 22 injections.
(§1) To mimic cancer cell and normal cell membranes, desired phospholipid powders were mixtured under certain ratios. Phospholipid mixtures were dissolved in chloroform, dried by N2 flow, and then vacuumed overnight to remove the trace of organic solvents. The lipids were hydrated in 10 mM HEPES and 150 mM NaCl buffer (pH 7.4) and extensively vortexed above the phase-transition temperature of phospholipid, obtaining multilamellar large vesicles (MLVs). To obtain large unilamellar vesicles (LUVs), the MLVs was exposed to five freeze-thaw cycles and pass 21 times through two polycarbonate membrane (0.1 μm) with a mini-extruder above the phase-transition temperature of phospholipids. The phospholipid concentrations were determined by phosphorus analysis.
(§2) The affinity of peptides with LUV liposomes were detected by a Nano ITC2G isothermal titration calorimeter (TA Instrument Corp., New Castle, DE, USA) at 25 °C, under HEPES buffer condition (10 mM HEPES, and 150 mM NaCl (pH 7.0)). To avoid air bubbles, peptides and LUV solutions were degassed under vacuum 500 mmHg, for 14 min before using. Titrations were performed by injecting aliquots of LUVs (lipid concentrations of DMPC and DMPS were 14.75 mM and 14.25 mM, respectively) into the calorimeter cell containing peptide solution (peptide concentrations varying between 25 and 50 μM) with 6 min waiting time between injections and 300 rpm of stirring rate. Data analysis was performed using the NanoAnalyze program provided by TA Instruments. Noises were controlled by the deduction of buffer signals in the presence or absence of liposomes. The vesicles sizes of peptide-exposed lipids are similar in DMPC and DMPS solutions; in contrast, the vesicles sizes of peptide-free lipids of DMPC and DMPS are similar to each other, but in comparatively smaller sizes than peptide-exposed lipids, respectively (data not shown).

[2] = Tryptophan fluorescence with normal LUVs; details: normal LUVs vs HEPES buffer; 2 μM peptide, 0.1 mM LUVs, pH 7.4, excitation 280 nm
[3] = Tryptophan fluorescence with cancer LUVs; details: cancer LUVs vs Hepes buffer; 2 μM peptide, 0.1 mM LUVs, pH 7.4, excitation 280 nm
[4] = Isothermal titration calorimetry with DMPS LUVs; type: binding; details: ITC
Method: as §1, §2

| Compound | N (binding stoichiometry) ([1]; 25 °C) | ∆H (total binding enthalpy) ([1]; 25 °C) | ∆S (entropy of binding) ([1]; 25 °C) | T∆S ([1]; 298.15 K) | ∆G (free energy of binding) ([1]; ΔG = ΔH − TΔS) | Blue shift in emission wavelength maxima [2] | Blue shift in emission wavelength maxima [3] | Intensity change (Trp fluorescence) [3] | N (binding stoichiometry) ([4]; 25 °C) | ∆H (total binding enthalpy) ([4]; 25 °C) | ∆S (entropy of binding) ([4]; 25 °C) | T∆S ([4]; 298.15 K) | ∆G (free energy of binding) ([4]; ΔG = ΔH − TΔS) |
| --- | --- | --- | --- | --- | --- | --- | --- | --- | --- | --- | --- | --- | --- |
| CC[C@H](C)[C@H](NC(=O)[C@H](CCCCN)NC(C)=O)C(=O)N[C@@H](CCCCN)C(=O)N[C@@H](CO)C(=O)N[C@@H](Cc1ccccc1)C(=O)N[C@@H](CC(C)C)C(=O)N[C@@H](CCCCN)C(=O)N[C@H](C(=O)N[C@@H](Cc1ccccc1)C(=O)N[C@@H](CCCCN)C(=O)N[C@@H](CO)C(=O)N[C@@H](CC(C)C)C(=O)N[C@@H](CCCCN)C(=O)N[C@@H](CCCCN)C(=O)N[C@H](C(=O)N[C@H](C(=O)N[C@@H](CC(C)C)C(=O)N[C@@H](Cc1c[nH]cn1)C(=O)N[C@H](C(=O)N[C@@H](CC(C)C)C(=O)N[C@@H](CC(C)C)C(=O)N[C@@H](CCCCN)C(=O)N[C@@H](C)C(=O)N[C@@H](Cc1c[nH]c2ccccc12)C(=O)N[C@@H](CO)C(=O)N[C@@H](CO)C(N)=O)[C@@H](C)O)C(C)C)[C@@H](C)O)[C@@H](C)O [PCW] | 58.60 | 10.93 kJ/M | 105.90 J M^−1K^−1 | 31.57 kJ/M | -20.64 kJ/M | 0 nm | 6 nm | 2 | 18.96 | -3.20 kJ/M | 70.58 J M^−1K^−1 | 21.04 kJ/M | -24.24 kJ/M |
| CC[C@H](C)[C@H](NC(=O)[C@H](C)NC(=O)[C@H](CCCCN)NC(=O)[C@H](CC(C)C)NC(=O)[C@H](CC(C)C)NC(=O)[C@@H](NC(=O)[C@H](Cc1c[nH]cn1)NC(=O)[C@H](CC(C)C)NC(=O)[C@@H](NC(=O)[C@@H](NC(=O)[C@H](CCCCN)NC(=O)[C@H](CCCCN)NC(=O)[C@H](Cc1c[nH]c2ccccc12)NC(=O)[C@H](CO)NC(=O)[C@H](CCCCN)NC(=O)[C@H](Cc1ccccc1)NC(=O)[C@@H](NC(=O)[C@H](CCCCN)NC(=O)[C@H](CC(C)C)NC(=O)[C@H](Cc1ccccc1)NC(=O)[C@H](CO)NC(=O)[C@H](CCCCN)NC(=O)[C@@H](NC(=O)[C@H](CCCCN)NC(C)=O)[C@@H](C)CC)[C@@H](C)O)[C@@H](C)O)C(C)C)[C@@H](C)O)C(=O)N[C@@H](CO)C(=O)N[C@@H](CO)C(N)=O [PMW] |  |  |  |  |  | 3 nm | 9 nm | 38 |  |  |  |  |  |
